Values quoted from earlier work as cited in patent US20020037832A1, “Use of alpha-MSH and EPO for preventing or treating ischemic conditions” (priority 2000, published 2002).
Some results were stated once for a whole list of compounds, not compound by compound.

Chains of the proteins cited; added tags and fusions are not shown. Lines headed by an entry give the natural chain unless they say otherwise; changes in a name come on top.
UniProt P01189: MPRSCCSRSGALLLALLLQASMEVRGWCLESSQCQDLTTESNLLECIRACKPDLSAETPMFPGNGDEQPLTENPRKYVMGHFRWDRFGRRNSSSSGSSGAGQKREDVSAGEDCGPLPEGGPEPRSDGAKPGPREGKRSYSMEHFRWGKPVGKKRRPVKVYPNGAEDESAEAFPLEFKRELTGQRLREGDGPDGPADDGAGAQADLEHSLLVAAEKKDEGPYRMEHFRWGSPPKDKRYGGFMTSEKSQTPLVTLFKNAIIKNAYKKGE

Tested on: rat model of SAO-Shock
Settings: acute i.v. rh-EPO 1.000 U/kg or ACTH-(1-24) 160 μg/kg; cited from earlier work

ACTH-(1-24): the melanocortin peptide ACTH-(1-24), literature treatment in SAO-shock (SYSMEHFRWGKPVGKKRRPVKVYP; Corticotropin; UniProt P01189 138-161, looked up, fragment)
acute mortality (death within 4 hours): 20-30%
